Paper PMC7956269
No constants are given. Whether binding was seen depends on the method and setting. Binding seen in cells or lysates may run through a third protein. These calls come from enrichment with a bait or labelling near it, and not all partners need be listed.

B1: Esyt2 (protein, UniProt A0FGR8 1-921)
chain: MTANRDAALSSHRHPGCAQRPRTPTFASSSQRRSAFGFDDGNFPGLGERSHAPGSRLGARRRAKTARGLRGHRQRGAGAGLSRPGSARAPSPPRPGGPENPGGVLSVELPGLLAQLARSFALLLPVYALGYLGLSFSWVLLALALLAWCRRSRGLKALRLCRALALLEDEERVVRLGVRACDLPAWVHFPDTERAEWLNKTVKHMWPFICQFIEKLFRETIEPAVRGANTHLSTFSFTKVDVGQQPLRINGVKVYTENVDKRQIILDLQISFVGNCEIDLEIKRYFCRAGVKSIQIHGTMRVILEPLIGDMPLVGALSIFFLRKPLLEINWTGLTNLLDVPGLNGLSDTIILDIISNYLVLPNRITVPLVSEVQIAQLRFPVPKGVLRIHFIEAQDLQGKDTYLKGLVKGKSDPYGIIRVGNQIFQSRVIKENLSPKWNEVYEALVYEHPGQELEIELFDEDPDKDDFLGSLMIDLIEVEKERLLDEWFTLDEVPKGKLHLRLEWLTLMPNASNLDKVLTDIKADKDQANDGLSSALLILYLDSARNLPSGKKISSNPNPVVQMSVGHKAQESKIRYKTNEPVWEENFTFFIHNPKRQDLEVEVRDEQHQCSLGNLKVPLSQLLTSEDMTVSQRFQLSNSGPNSTIKMKIALRVLHLEKRERPPDHQHSAQVKRPSVSKEGRKTSIKSHMSGSPGPGGSNTAPSTPVIGGSDKPGMEEKAQPPEAGPQGLHDLGRSSSSLLASPGHISVKEPTPSIASDISLPIATQELRQRLRQLENGTTLGQSPLGQIQLTIRHSSQRNKLIVVVHACRNLIAFSEDGSDPYVRMYLLPDKRRSGRRKTHVSKKTLNPVFDQSFDFSVSLPEVQRRTLDVAVKNSGGFLSKDKGLLGKVLVALASEELAKGWTQWYDLTEDGTRPQAMT
B2: Nol9 (protein, UniProt Q5SY16 1-702)
chain: MADSGLLLKRGSCRSTWLRVRKARPQLILSRRPRRRLGSLRWCGRRRLRWRLLQAQASGVDWREGARQVSRAAAARRPNTATPSPIPSPTPASEPESEPELESASSCHRPLLIPPVRPVGPGRALLLLPVEQGFTFSGICRVTCLYGQVQVFGFTISQGQPAQDIFSVYTHSCLSIHALHYSQPEKSKKELKREARNLLKSHLNLDDRRWSMQNFSPQCSIVLLEHLKTATVNFITSYPGSSYIFVQESPTPQIKPEYLALRSVGIRREKKRKGLQLTESTLSALEELVNVSCEEVDGCPVILVCGSQDVGKSTFNRYLINHLLNSLPCVDYLECDLGQTEFTPPGCISLLNITEPVLGPPFTHLRTPQKMVYYGKPSCKNNYENYIDIVKYVFSAYKRESPLIVNTMGWVSDQGLLLLIDLIRLLSPSHVVQFRSDHSKYMPDLTPQYVDDMDGLYTKSKTKMRNRRFRLAAFADALEFADEEKESPVEFTGHKLIGVYTDFAFRITPRNRESHNKILRDLSILSYLSQLQPPMPKPLSPLHSLTPYQVPFNAVALRITHSDVAPTHILYAVNASWVGLCKIQDDVRGYTNGPILLAQTPICDCLGFGICRGIDMEKRLYHILTPVPPEELRTVNCLLVGAIAIPHCVLKCQRGIEGTVPYVTTDYNFKLPGASEKIGAREPEEAHKEKPYRRPKFCRKMK
B3: Nt5dc2 (protein, UniProt Q9H857 1-520)
chain: MRVESGSAQERGILLESLSTLLEKTTASHEGRAPGNRELTDLLPPEVCSLLNPAAIYANNEISLRDVEVYGFDYDYTLAQYADALHPEIFSTARDILIEHYKYPEGIRKYDYNPSFAIRGLHYDIQKSLLMKIDAFHYVQLGTAYRGLQPVPDEEVIELYGGTQHIPLYQMSGFYGKGPSIKQFMDIFSLPEMALLSCVVDYFLGHSLEFDQAHLYKDVTDAIRDVHVKGLMYQWIEQDMEKYILRGDETFAVLSRLVAHGKQLFLITNSPFSFVDKGMRHMVGPDWRQLFDVVIVQADKPSFFTDRRKPFRKLDEKGSLQWDRITRLEKGKIYRQGNLFDFLRLTEWRGPRVLYFGDHLYSDLADLMLRHGWRTGAIIPELEREIRIINTEQYMHSLTWQQALTGLLERMQTYQDAESRQVLAAWMKERQELRCITKALFNAQFGSIFRTFHNPTYFSRRLVRFSDLYMASLSCLLNYRVDFTFYPRRTPLQHEAPLWMDQLCTGCMKTPFLGDMAHIR
B4: Krt77 (protein, UniProt Q7Z794 1-578)
chain: MSHQFSSQSAFSSMSRRVYSTSSSAGSGGGSPAVGSVCYARGRCGGGGYGIHGRGFGSRSLYNLGGSRSISINLMGRSTSGFCQGGGVGGFGGGRGFGVGSTGAGGFGGGGFGGAGFGTSNFGLGGFGPYCPPGGIQEVTINQSLLEPLHLEVDPEIQRIKTQEREQIMVLNNKFASFIDKVRFLEQQNQVLQTKWELLQQVNTSTGTNNLEPLLENYIGDLRRQVDLLSAEQMRQNAEVRSMQDVVEDYKSKYEDEINKRTGSENDFVVLKKDVDAAYVSKVDLESRVDTLTGEVNFLKYLFLTELSQVQTHISDTNVILSMDNNRSLDLDSIIDAVRTQYELIAQRSKDEAEALYQTKYQELQITAGRHGDDLKNSKMEIAELNRTVQRLQAEISNVKKQIEQMQSLISDAEERGEQALQDAWQKLQDLEEALQQSKEELARLLRDYQAMLGVKLSLDVEIATYRQLLEGEESRMSGELQSHVSISVQNSQVSVNGGAGGGGSYGSGGYGGGSGGGYGGGRSYRGGGARGRSGGGYGSGCGGGGGSYGGSGRSGRGSSRVQIIQTSTNTSHRRILE
B5: Ttf1 (protein, UniProt Q15361 1-905)
chain: MEGESSRFEIHTPVSDKKKKKCSIHKERPQKHSHEIFRDSSLVNEQSQITRRKKRKKDFQHLISSPLKKSRICDETANATSTLKKRKKRRYSALEVDEEAGVTVVLVDKENINNTPKHFRKDVDVVCVDMSIEQKLPRKPKTDKFQVLAKSHAHKSEALHSKVREKKNKKHQRKAASWESQRARDTLPQSESHQEESWLSVGPGGEITELPASAHKNKSKKKKKKSSNREYETLAMPEGSQAGREAGTDMQESQPTVGLDDETPQLLGPTHKKKSKKKKKKKSNHQEFEALAMPEGSQVGSEVGADMQESRPAVGLHGETAGIPAPAYKNKSKKKKKKSNHQEFEAVAMPESLESAYPEGSQVGSEVGTVEGSTALKGFKESNSTKKKSKKRKLTSVKRARVSGDDFSVPSKNSESTLFDSVEGDGAMMEEGVKSRPRQKKTQACLASKHVQEAPRLEPANEEHNVETAEDSEIRYLSADSGDADDSDADLGSAVKQLQEFIPNIKDRATSTIKRMYRDDLERFKEFKAQGVAIKFGKFSVKENKQLEKNVEDFLALTGIESADKLLYTDRYPEEKSVITNLKRRYSFRLHIGRNIARPWKLIYYRAKKMFDVNNYKGRYSEGDTEKLKMYHSLLGNDWKTIGEMVARSSLSVALKFSQISSQRNRGAWSKSETRKLIKAVEEVILKKMSPQELKEVDSKLQENPESCLSIVREKLYKGISWVEVEAKVQTRNWMQCKSKWTEILTKRMTNGRRIYYGMNALRAKVSLIERLYEINVEDTNEIDWEDLASAIGDVPPSYVQTKFSRLKAVYVPFWQKKTFPEIIDYLYETTLPLLKEKLEKMMEKKGTKIQTPAAPKQVFPFRDIFYYEDDSEGEDIEKESEGQAPCMAHACNSSTLGGQGRWII
B6: Adnp (protein, UniProt Q9H2P0 1-1102)
chain: MFQLPVNNLGSLRKARKTVKKILSDIGLEYCKEHIEDFKQFEPNDFYLKNTTWEDVGLWDPSLTKNQDYRTKPFCCSACPFSSKFFSAYKSHFRNVHSEDFENRILLNCPYCTFNADKKTLETHIKIFHAPNASAPSSSLSTFKDKNKNDGLKPKQADSVEQAVYYCKKCTYRDPLYEIVRKHIYREHFQHVAAPYIAKAGEKSLNGAVPLGSNAREESSIHCKRCLFMPKSYEALVQHVIEDHERIGYQVTAMIGHTNVVVPRSKPLMLIAPKPQDKKSMGLPPRIGSLASGNVRSLPSQQMVNRLSIPKPNLNSTGVNMMSSVHLQQNNYGVKSVGQGYSVGQSMRLGLGGNAPVSIPQQSQSVKQLLPSGNGRSYGLGSEQRSQAPARYSLQSANASSLSSGQLKSPSLSQSQASRVLGQSSSKPAAAATGPPPGNTSSTQKWKICTICNELFPENVYSVHFEKEHKAEKVPAVANYIMKIHNFTSKCLYCNRYLPTDTLLNHMLIHGLSCPYCRSTFNDVEKMAAHMRMVHIDEEMGPKTDSTLSFDLTLQQGSHTNIHLLVTTYNLRDAPAESVAYHAQNNPPVPPKPQPKVQEKADIPVKSSPQAAVPYKKDVGKTLCPLCFSILKGPISDALAHHLRERHQVIQTVHPVEKKLTYKCIHCLGVYTSNMTASTITLHLVHCRGVGKTQNGQDKTNAPSRLNQSPSLAPVKRTYEQMEFPLLKKRKLDDDSDSPSFFEEKPEEPVVLALDPKGHEDDSYEARKSFLTKYFNKQPYPTRREIEKLAASLWLWKSDIASHFSNKRKKCVRDCEKYKPGVLLGFNMKELNKVKHEMDFDAEWLFENHDEKDSRVNASKTADKKLNLGKEDDSSSDSFENLEEESNESGSPFDPVFEVEPKISNDNPEEHVLKVIPEDASESEEKLDQKEDGSKYETIHLTEEPTKLMHNASDSEVDQDDVVEWKDGASPSESGPGSQQVSDFEDNTCEMKPGTWSDESSQSEDARSSKPAAKKKATMQGDREQLKWKNSSYGKVEGFWSKDQSQWKNASENDERLSNPQIEWQNSTIDSEDGEQFDNMTDGVAEPMHGSLAGVKLSSQQA
B7: Rbm14 (protein, UniProt Q96PK6 1-669)
chain: MKIFVGNVDGADTTPEELAALFAPYGTVMSCAVMKQFAFVHMRENAGALRAIEALHGHELRPGRALVVEMSRPRPLNTWKIFVGNVSAACTSQELRSLFERRGRVIECDVVKDYAFVHMEKEADAKAAIAQLNGKEVKGKRINVELSTKGQKKGPGLAVQSGDKTKKPGAGDTAFPGTGGFSATFDYQQAFGNSTGGFDGQARQPTPPFFGRDRSPLRRSPPRASYVAPLTAQPATYRAQPSVSLGAAYRAQPSASLGVGYRTQPMTAQAASYRAQPSVSLGAPYRGQLASPSSQSAAASSLGPYGGAQPSASALSSYGGQAAAASSLNSYGAQGSSLASYGNQPSSYGAQAASSYGVRAAASSYNTQGAASSLGSYGAQAASYGAQSAASSLAYGAQAASYNAQPSASYNAQSAPYAAQQAASYSSQPAAYVAQPATAAAYASQPAAYAAQATTPMAGSYGAQPVVQTQLNSYGAQASMGLSGSYGAQSAAAATGSYGAAAAYGAQPSATLAAPYRTQSSASLAASYAAQQHPQAAASYRGQPGNAYDGAGQPSAAYLSMSQGAVANANSTPPPYERTRLSPPRASYDDPYKKAVAMSKRYGSDRRLAELSDYRRLSESQLSFRRSPTKSSLDYRRLPDAHSDYARYSGSYNDYLRAAQMHSGYQRRM

The binders below were run against Biotin-FOXC1 (mouse) (UniProt Q61572) (assay: affinity purification with mass spectrometry; streptavidin-agarose precipitation of biotinylated FOXC1 from nuclear extract of stable HEK293T cells (293T-Biotin-FOXC1); IP350 buffer (350 mM NaCl, 20 mM Tris-HCl pH 7.5, 0.5% NP40, 1 mM EDTA, 10% glycerin); SDS-PAGE, LC-ESI-MS/MS; proteins of the 293T-Biotin control deducted).

| binding | Binder |
| --- | --- |
| binds | B1 |
| binds | B2 |
| binds | B3 |
| binds | B4 |
| binds | B5 |
| binds | B6 |
| binds | B7 |
